Reference: PubChem BioAssay AID652259 (Drosophila RNAi Screening Center, 2013)
The deposit covers about 22,000 reagents; shown is an unselected part of those that have a named target and a result. Of all reagents, 233 (1.1%) are marked active. 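Light values are raw, unnormalised plate reads; the ratio scores behind the reporter calls were not deposited.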 Not stated in the record: the amount of reagent, the time to read-out, the dose of the treatment.

- Test: 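Knock-downs that push a Wingless-driven reporter up or down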 (primary screen)
- Cells: Drosophila clone 8 imaginal disc epithelial cells
- Knock-down reagent: long dsRNA against Drosophila genes
- Conditions: pathway stimulated by co-transfected Wingless expression plasmid
- Read-out: 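Firefly luciferase from a tcf-site Wingless reporter, measured alongside co-transfected Renilla luciferase that tracks transfection; pathway stimulated by a Wingless plasmid; the firefly-to-Renilla ratio is not deposited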
- Reading the numbers: firefly reporter light: higher = more Wg reporter light, before normalisation; Renilla control light: higher = more transfected or surviving cells
- Hit rule: 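Strong candidates differ from their plate mean by at least two out of four per-plate statistical tests; weak candidates meet just one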
- Meaning of the calls: active = candidate regulator (raises or lowers reporter); inactive = not a candidate

{"predicted target":"SrpRbeta (Signal recognition particle receptor beta)","dsRNA":"DRSC21668","firefly reporter light, replicate 1":6.10e5,"firefly reporter light, replicate 2":7.23e5,"Renilla control light, replicate 1":4.25e5,"Renilla control light, replicate 2":3.44e5,"Outcome":"inactive"}
{"predicted target":"gdrd (goddard)","dsRNA":"DRSC10020","firefly reporter light, replicate 1":4008,"Renilla control light, replicate 1":1946,"Outcome":"inactive"}
{"predicted target":"CG2157","dsRNA":"DRSC19836","firefly reporter light, replicate 1":15076,"Renilla control light, replicate 1":6953,"Outcome":"inactive"}
{"predicted target":"CG12885","dsRNA":"DRSC14572","firefly reporter light, replicate 1":6668,"Renilla control light, replicate 1":2084,"Outcome":"inactive"}
{"predicted target":"APC10 (Anaphase Promoting Complex subunit 10)","dsRNA":"DRSC06071","firefly reporter light, replicate 1":9367,"Renilla control light, replicate 1":2828,"Outcome":"inactive"}
{"predicted target":"sug (sugarbabe)","dsRNA":"DRSC06855","firefly reporter light, replicate 1":13164,"Renilla control light, replicate 1":2675,"Outcome":"inactive"}
{"predicted target":"CG1486","dsRNA":"DRSC20508","firefly reporter light, replicate 1":3220,"firefly reporter light, replicate 2":7457,"Renilla control light, replicate 1":1378,"Renilla control light, replicate 2":3284,"Outcome":"inactive"}
{"predicted target":"CG13895","dsRNA":"DRSC08365","firefly reporter light, replicate 1":4552,"Renilla control light, replicate 1":2715,"Outcome":"inactive"}
{"predicted target":"beta4GalNAcTA (beta1,4-N-acetylgalactosaminyltransferase A)","dsRNA":"DRSC05944","firefly reporter light, replicate 1":4129,"Renilla control light, replicate 1":1208,"Outcome":"inactive"}
{"predicted target":"CG4452","dsRNA":"DRSC10422","firefly reporter light, replicate 1":6636,"Renilla control light, replicate 1":2640,"Outcome":"inactive"}
{"predicted target":"Or33a (Odorant receptor 33a)","dsRNA":"DRSC03386","firefly reporter light, replicate 1":2338,"firefly reporter light, replicate 2":6896,"Renilla control light, replicate 1":706,"Renilla control light, replicate 2":3926,"Outcome":"inactive"}
{"predicted target":"beta4GalT7 (beta-4-galactosyltransferase 7)","dsRNA":"DRSC14385","firefly reporter light, replicate 1":17664,"Renilla control light, replicate 1":15216,"Outcome":"inactive"}
{"predicted target":"nAChRalpha4 (nicotinic Acetylcholine Receptor alpha4)","dsRNA":"DRSC11925","firefly reporter light, replicate 1":3610,"Renilla control light, replicate 1":1872,"Outcome":"inactive"}
{"predicted target":"nAChRalpha4 (nicotinic Acetylcholine Receptor alpha4)","dsRNA":"DRSC11929","firefly reporter light, replicate 1":4593,"Renilla control light, replicate 1":2452,"Outcome":"inactive"}

Entries above whose target name starts with S or s (2):
{"predicted target":"SrpRbeta (Signal recognition particle receptor beta)","dsRNA":"DRSC21668","firefly reporter light, replicate 1":6.10e5,"firefly reporter light, replicate 2":7.23e5,"Renilla control light, replicate 1":4.25e5,"Renilla control light, replicate 2":3.44e5,"Outcome":"inactive"}
{"predicted target":"sug (sugarbabe)","dsRNA":"DRSC06855","firefly reporter light, replicate 1":13164,"Renilla control light, replicate 1":2675,"Outcome":"inactive"}

The list goes on.
{"predicted target":"CG14756","dsRNA":"DRSC06491","firefly reporter light, replicate 1":934,"firefly reporter light, replicate 2":4908,"Renilla control light, replicate 1":384,"Renilla control light, replicate 2":2178,"Outcome":"inactive"}
{"predicted target":"Gpat4 (Glycerol-3-phosphate acyltransferase 4)","dsRNA":"DRSC04345","firefly reporter light, replicate 1":14869,"Renilla control light, replicate 1":4528,"Outcome":"inactive"}
{"predicted target":"CG8925","dsRNA":"DRSC16455","firefly reporter light, replicate 1":13945,"Renilla control light, replicate 1":2903,"Outcome":"inactive"}
{"predicted target":"CG8925","dsRNA":"DRSC16456","firefly reporter light, replicate 1":16141,"Renilla control light, replicate 1":3292,"Outcome":"inactive"}
{"predicted target":"CG8925","dsRNA":"DRSC16457","firefly reporter light, replicate 1":13989,"Renilla control light, replicate 1":2995,"Outcome":"inactive"}
{"predicted target":"Cdk12 (Cyclin-dependent kinase 12)","dsRNA":"DRSC11836","firefly reporter light, replicate 1":11515,"Renilla control light, replicate 1":2742,"Outcome":"inactive"}
{"predicted target":"CG4820","dsRNA":"DRSC15654","firefly reporter light, replicate 1":15891,"Renilla control light, replicate 1":4304,"Outcome":"inactive"}
{"predicted target":"VhaAC45 (Vacuolar H[+] ATPase AC45 accessory subunit)","dsRNA":"DRSC07058","firefly reporter light, replicate 1":6320,"Renilla control light, replicate 1":1538,"Outcome":"inactive"}
{"predicted target":"CG32811","dsRNA":"DRSC22649","firefly reporter light, replicate 1":6.74e5,"firefly reporter light, replicate 2":6.55e5,"Renilla control light, replicate 1":2.65e5,"Renilla control light, replicate 2":1.41e5,"Outcome":"inactive"}
{"predicted target":"Fen1 (Flap endonuclease 1)","dsRNA":"DRSC07415","firefly reporter light, replicate 1":4979,"Renilla control light, replicate 1":3132,"Outcome":"inactive"}
{"predicted target":"Tsp2A (Tetraspanin 2A)","dsRNA":"DRSC18584","firefly reporter light, replicate 1":19024,"Renilla control light, replicate 1":16715,"Outcome":"inactive"}
